Measured values reported in article PMC12431657, “Discovery and mechanistic insights of dibenzoylmethane as a broad spectrum inhibitor of coronavirus” (PLOS Pathogens, 2025).
Structures can show the parent of a compound that is named as a salt. Where two headings read alike, the source gives them in different places. Hit rate of the full screen: of about 3,300 compounds, about 95 (3%) showed an effect of 50% or more. This is one part of the list.

Tested on: HCoV-229E
Set-up: species or system Huh-7; HTS, protection from HCoV-229E induced cell death, luminescent cell viability (CellCounting-Lite 2.0), inhibition rate
Details: 24 h post infection, 1 h compound pre-incubation, 10 µM, inhibitor

| Structure (SMILES) | 229E Inhibition rate (229E Inhibition rate, 24 h) [%] | 229E Inhibition rate [%] |
| --- | --- | --- |
| Nc1ncnc2c1ncn2[C@@H]1O[C@H](COP(=O)(O)OP(=O)(O)OP(=O)(O)O)[C@@H](O)[C@H]1O [ATP (disodium salt hydrate)] | 3.4 |  |
| CC(C)=CCC[C@](C)(O)[C@H]1CC[C@]2(C)[C@@H]1[C@H](O)C[C@@H]1[C@@]3(C)CC[C@H](O)C(C)(C)[C@@H]3CC[C@]12C [(20S)-Protopanaxadiol] |  | 22.7 |
| CC(C)=CCC/C(C)=C/Cc1c(O)ccc(C(=O)/C=C/c2ccc(O)cc2)c1O [Xanthoangelol] |  | 13.6 |
| O=c1cc(-c2ccccc2)oc2c(O)c(O)cc(O)c12 [Norwogonin] |  | 37.2 |
| COc1cc([C@@H]2c3cc4c(cc3[C@H](O)[C@H]3COC(=O)[C@@H]23)OCO4)cc(OC)c1OC [Picropodophyllin] |  | 9.2 |
| COc1cc(O[C@@H]2O[C@H](CO)[C@@H](O)[C@H](O)[C@H]2O)c2c(O)c(C(C)=O)c(C)cc2c1 [Torachrysone-8-O-b-D-glucoside] |  | 3.9 |
| C[C@H]1CC[C@@]2(OC1)O[C@H]1C[C@H]3[C@@H]4CC=C5C[C@@H](O[C@@H]6O[C@H](CO)[C@@H](O)[C@H](O[C@@H]7OC[C@@H](O)[C@H](O)[C@H]7O)[C@H]6O[C@@H]6O[C@@H](C)[C@H](O)[C@@H](O)[C@H]6O)CC[C@]5(C)[C@H]4CC[C@]3(C)[C@H]1[C@@H]2C [Liriope muscari baily saponins C] |  | 31 |
| Nc1ncnc2c1ncn2[C@H]1C[C@H](O)[C@@H](CO)O1 [2'-Deoxyadenosine] | 3 |  |
| COC(=O)[C@]1(C)CC[C@]2(C(=O)O[C@@H]3O[C@H](CO)[C@@H](O)[C@H](O)[C@H]3O)CC[C@]3(C)C(=CC[C@@H]4[C@@]5(C)C[C@H](O)[C@H](O[C@@H]6OC[C@@H](O[C@@H]7O[C@H](CO)[C@@H](O)[C@H](O)[C@H]7O)[C@H](O)[C@H]6O)[C@@](C)(CO)C5CC[C@]43C)[C@H]2C1 (stereo partly shown) [Esculentoside H] |  | 6.7 |
| COc1ccc(-c2cc(=O)c3c(O)c(OC)c(O)c(OC)c3o2)cc1 [Nevadensin] |  | 22.1 |
| CC(=O)c1ccccc1O [2'-Hydroxyacetophenone] |  | 38.7 |
| NC(=O)CCC(N)C(=O)O (racemic) [DL-Glutamine] |  | 9.3 |
| C/C(=C\CNc1ncnc2nc[nH]c12)CO [trans-Zeatin] |  | 11.1 |
| CCCCCCO [1-Hexanol] |  | 12.8 |
| CC(=O)OC/C1=C/C[C@H]2[C@@H](/C=C(\C)C(=O)[C@@]3(OC(C)=O)C[C@H](C)[C@H](OC(=O)c4ccccc4)[C@@H]3[C@H]1OC(C)=O)C2(C)C [Euphorbia factor L7b] |  | 41.1 |
| CCc1c2c(nc3ccc(O)cc13)-c1cc3c(c(=O)n1C2)COC(=O)[C@]3(O)CC [SN-38] |  | 12.5 |
| O=c1c(-c2ccc(O)cc2)coc2c([C@@H]3O[C@H](CO[C@@H]4OC[C@@H](O)[C@H](O)[C@H]4O)[C@@H](O)[C@H](O)[C@H]3O)c(O)ccc12 [Puerarin 6''-O-Xyloside] |  | 0 |
| O=c1[nH]c2ccccc2c(-c2cccc(O)c2)c1O [Viridicatol] |  | 6.9 |
| CC1(C)[C@@H](O[C@H]2O[C@H](C(=O)O)[C@@H](O)[C@H](O)[C@H]2O[C@@H]2O[C@H](C(=O)O)[C@@H](O)[C@H](O)[C@H]2O)CC[C@]2(C)[C@H]3C(=O)C=C4[C@@H]5C[C@@](C)(C(=O)O)CC[C@]5(C)CC[C@@]4(C)[C@]3(C)CC[C@@H]12 [Diammonium Glycyrrhizinate] | 0 |  |
| C/C(=C\CO)CCC[C@H](C)CCC[C@H](C)CCCC(C)C [Phytol] |  | 25.6 |
| CC1(C)[C@@H](O[C@@H]2O[C@H](C(=O)O)[C@@H](O)[C@H](O)[C@H]2O[C@@H]2O[C@H](C(=O)O)[C@@H](O)[C@H](O)[C@H]2O)CC[C@]2(C)[C@H]3C(=O)C=C4[C@@H]5C[C@](C)(C(=O)O)CC[C@]5(C)CC[C@@]4(C)[C@]3(C)CC[C@@H]12 [Licorice-saponin H2] |  | 21.2 |
| C[C@@H](CO[C@@H]1O[C@H](CO)[C@@H](O)[C@H](O)[C@H]1O)[C@@H]1CC[C@@]2(CC[C@]3(C)[C@H](CC[C@@H]4[C@@]5(C)CC[C@H](O[C@@H]6O[C@H](CO)[C@@H](O)[C@H](O)[C@H]6O[C@@H]6OC[C@@H](O)[C@H](O)[C@H]6O)[C@@](C)(CO[C@@H]6O[C@H](CO)[C@@H](O)[C@H](O)[C@H]6O)[C@@H]5CC[C@]43C)[C@H]2O)CO1 [Hosenkoside M] |  | 10.1 |
| O[C@H]1CCN2Cc3ccccc3N=C12 [Vasicine (hydrochloride)] |  | 10.9 |
| C[C@H]1[C@H](C)CC[C@]2(C(=O)O[C@@H]3O[C@H](CO[C@@H]4O[C@H](CO)[C@@H](O[C@@H]5O[C@@H](C)[C@H](O)[C@@H](O)[C@H]5O)[C@H](O)[C@H]4O)[C@@H](O)[C@H](O)[C@H]3O)CC[C@]3(C)C(=CC[C@@H]4[C@@]5(C)C[C@@H](O)[C@H](O)[C@@](C)(CO)[C@@H]5[C@H](O)C[C@]43C)[C@H]12 [Madecassoside] |  | 48.9 |
| COc1cc2c(cc1OC)-c1cc3ccc(OC)c(OC)c3c[n+]1CC2 [Palmatine (hydroxide)] | 0 |  |
| COc1cc(CCC(O)CCCCc2ccccc2)ccc1O (stereo not shown) [Oxyphyllacinol] |  | 0 |

Quoted from the listing.
Value of `COc1cc(O[C@@H]2O[C@H](CO)[C@@H](O)[C@H](O)[C@H]2O)c2c(O)c(C(C)=O)c(C)cc2c1` [Torachrysone-8-O-b-D-glucoside] under 229E Inhibition rate [%]: 3.9
Value of `Nc1ncnc2c1ncn2[C@@H]1O[C@H](COP(=O)(O)OP(=O)(O)OP(=O)(O)O)[C@@H](O)[C@H]1O` [ATP (disodium salt hydrate)] under 229E Inhibition rate (229E Inhibition rate, 24 h) [%]: 3.4
Value of `C[C@@H](CO[C@@H]1O[C@H](CO)[C@@H](O)[C@H](O)[C@H]1O)[C@@H]1CC[C@@]2(CC[C@]3(C)[C@H](CC[C@@H]4[C@@]5(C)CC[C@H](O[C@@H]6O[C@H](CO)[C@@H](O)[C@H](O)[C@H]6O[C@@H]6OC[C@@H](O)[C@H](O)[C@H]6O)[C@@](C)(CO[C@@H]6O[C@H](CO)[C@@H](O)[C@H](O)[C@H]6O)[C@@H]5CC[C@]43C)[C@H]2O)CO1` [Hosenkoside M] under 229E Inhibition rate [%]: 10.1

Additional entries

| Structure (SMILES) | 229E Inhibition rate (229E Inhibition rate, 24 h) [%] | 229E Inhibition rate [%] |
| --- | --- | --- |
| Cn1c(=O)[nH]c2ncn(C)c2c1=O [Paraxanthine] |  | 35.2 |
| CC(=O)Nc1ccn([C@@H]2O[C@H](COP(=O)(O)OP(=O)(O)OP(=O)(O)O)[C@@H](O)[C@H]2O)c(=O)n1 [N4-Acetylcytidine triphosphate (sodium)] |  | 10.2 |
| C/C=C(\C)C(=O)OC1c2c(ccc3ccc(=O)oc23)OC(C)(C)C1OC(=O)/C(C)=C/C (stereo not shown) [Praeruptorin B] |  | 53.9 |
| C=CCSSSCC=C [Diallyl Trisulfide] |  | 13.2 |
| CC(=O)O[C@@H]1CC[C@@]2(C)[C@@H](CC[C@]3(C)[C@@H]2CC=C2[C@@H]4[C@@H](C)[C@H](C)CC[C@]4(C)CC[C@]23C)[C@@]1(C)C(=O)O [3-Acetyl-beta-boswellic acid] |  | 8.3 |
| COc1cc(C2Oc3ccc([C@H]4Oc5cc(O)cc(O)c5C(=O)[C@@H]4O)cc3OC2CO)ccc1O (stereo partly shown) [Isosilybin] |  | 0 |
| COc1ccc(-c2cc(=S)ss2)cc1 [Anethole trithione] |  | 32.8 |
| C=C1CCOC1=O [Tulipalin A] |  | 15.3 |
| CC(CC(=O)CC(C)(O)[C@H]1CC(=O)[C@@]2(C)C3=C(C(=O)C[C@]12C)[C@@]1(C)CCC(=O)C(C)(C)[C@@H]1C[C@@H]3O)C(=O)O (stereo partly shown) [Ganoderic acid N] |  | 14.9 |
| COc1cc(CNC(=O)CCCCCCCC(C)C)ccc1O [Homodihydrocapsaicin I] |  | 33 |
| C=CCSC[C@H](N)C(=O)O [S-Allyl-L-cysteine] |  | 13.2 |
| O=c1cc(CO)occ1O [Kojic acid] |  | 0 |
| COc1ccc(-c2coc3c([C@@H]4O[C@H](CO)[C@@H](O)[C@H](O)[C@H]4O)c(O)ccc3c2=O)cc1 [4'-Methoxypuerarin] |  | 9.3 |
| NC(=O)[C@@H](N)Cc1c[nH]c2ccccc12 [H-Trp-NH2.HCl] |  | 38.8 |
| C1=C2CCCN[C@H]2[C@@H]2C[C@H]1[C@H]1CCCCN1C2 [Aloperine] |  | 8.6 |
| C[C@]12C[C@@H](O)[C@@H]3C[C@@]1(O[C@@H]1O[C@H](CO)[C@@H](O)[C@H](O)[C@H]1O)[C@]3(COC(=O)c1ccccc1)C(=O)O2 [Albiflorin] |  | 13.1 |
| O=C(O)CCCC(=O)O [Glutaric acid] |  | 19.3 |
| CC[C@H]1CN2CC[C@]3(C(=O)Nc4ccccc43)[C@@H]2C[C@@H]1/C(=C\OC)C(=O)OC [Rhynchophylline] |  | 10.8 |
| CC1(C)C=Cc2c(ccc(C(=O)/C=C/c3ccc(O)cc3)c2O)O1 [Isobavachromene] | 41.7 |  |
| NCCCNCCCCNCCCN [Spermine] |  | 12.9 |
| C[C@H]1O[C@@H](O[C@H]2CC[C@@]3(C)[C@@H](CC[C@]4(C)[C@@H]3C=CC3=C5CC(C)(C)CC[C@]5(CO)[C@H](O)C[C@]34C)[C@]2(C)CO)[C@H](O)[C@@H](O[C@@H]2O[C@H](CO)[C@@H](O)[C@H](O)[C@H]2O)[C@H]1O [Saikosaponin B2] |  | 0 |
| COc1ccc(C(=O)O)c(O)c1 [2-Hydroxy-4-methoxybenzoic acid] |  | 14 |
| COc1ccc(-c2coc3cc(OC)ccc3c2=O)cc1 [4',7-Dimethoxyisoflavone] |  | 12.4 |
| CSCC[C@H](NC(=O)[C@H](CC(C)C)NC(=O)CNC(=O)[C@H](Cc1ccccc1)NC(=O)[C@H](Cc1ccccc1)NC(=O)[C@H](CCC(N)=O)NC(=O)[C@H](CCC(N)=O)NC(=O)[C@@H]1CCCN1C(=O)[C@H](CCCCN)NC(=O)[C@@H]1CCCN1C(=O)[C@@H](N)CCCN=C(N)N)C(N)=O [Substance P] |  | 0 |
| O=C(O[C@@H]1Cc2c(O)cc(O)cc2O[C@@H]1c1cc(=O)c(O)c2c(O)c(O)cc([C@H]3Oc4cc(O)cc(O)c4C[C@H]3O)c2c1)c1cc(O)c(O)c(O)c1 [Theaflavin-3'-gallate] | 18.5 |  |
| CC(C)=CCC/C(C)=C/CC/C(C)=C/CC/C=C(\C)CC/C=C(\C)CCC=C(C)C [Squalene] |  | 15.7 |
